The source of these data is the supplement of paper PMC6411743.

Chains of the proteins cited; added tags and fusions are not shown. Lines headed by an entry give the natural chain unless they say otherwise; changes in a name come on top.
UniProt Q9NWS8: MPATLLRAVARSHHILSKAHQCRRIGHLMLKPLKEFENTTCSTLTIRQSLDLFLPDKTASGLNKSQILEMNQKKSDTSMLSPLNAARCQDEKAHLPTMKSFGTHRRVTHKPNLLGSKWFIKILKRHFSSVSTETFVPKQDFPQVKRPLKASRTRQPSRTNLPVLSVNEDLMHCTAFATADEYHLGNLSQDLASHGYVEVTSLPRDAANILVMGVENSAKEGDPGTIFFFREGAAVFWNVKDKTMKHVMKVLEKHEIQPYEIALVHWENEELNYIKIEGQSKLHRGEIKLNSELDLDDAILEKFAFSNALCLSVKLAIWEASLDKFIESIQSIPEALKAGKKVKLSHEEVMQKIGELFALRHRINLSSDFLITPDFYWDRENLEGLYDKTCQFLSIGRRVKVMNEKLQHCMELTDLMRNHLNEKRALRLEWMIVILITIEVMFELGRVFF
UniProt Q9NPQ8: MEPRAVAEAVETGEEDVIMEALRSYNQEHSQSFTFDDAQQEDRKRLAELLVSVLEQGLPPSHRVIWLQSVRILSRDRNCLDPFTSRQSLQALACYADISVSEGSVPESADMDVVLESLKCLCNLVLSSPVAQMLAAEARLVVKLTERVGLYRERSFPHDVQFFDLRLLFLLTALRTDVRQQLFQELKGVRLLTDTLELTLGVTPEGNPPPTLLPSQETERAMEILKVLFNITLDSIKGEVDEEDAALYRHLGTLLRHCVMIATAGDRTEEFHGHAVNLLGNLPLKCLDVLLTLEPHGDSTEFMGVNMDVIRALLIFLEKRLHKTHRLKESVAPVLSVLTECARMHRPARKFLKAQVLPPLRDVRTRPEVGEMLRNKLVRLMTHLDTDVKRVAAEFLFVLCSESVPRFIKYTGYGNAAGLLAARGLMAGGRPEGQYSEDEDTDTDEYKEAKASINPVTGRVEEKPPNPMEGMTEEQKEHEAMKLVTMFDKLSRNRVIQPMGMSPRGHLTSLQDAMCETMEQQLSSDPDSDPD
UniProt Q9P0J7: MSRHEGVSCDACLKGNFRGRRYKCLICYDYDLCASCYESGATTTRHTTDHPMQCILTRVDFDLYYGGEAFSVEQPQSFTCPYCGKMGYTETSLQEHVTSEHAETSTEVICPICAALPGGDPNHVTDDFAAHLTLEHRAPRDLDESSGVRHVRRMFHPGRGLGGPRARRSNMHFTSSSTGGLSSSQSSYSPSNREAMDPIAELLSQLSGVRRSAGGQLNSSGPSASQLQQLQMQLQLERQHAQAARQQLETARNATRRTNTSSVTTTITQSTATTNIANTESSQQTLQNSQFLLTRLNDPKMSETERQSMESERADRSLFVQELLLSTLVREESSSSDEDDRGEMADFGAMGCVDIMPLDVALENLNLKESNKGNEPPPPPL
UniProt Q9NXR1: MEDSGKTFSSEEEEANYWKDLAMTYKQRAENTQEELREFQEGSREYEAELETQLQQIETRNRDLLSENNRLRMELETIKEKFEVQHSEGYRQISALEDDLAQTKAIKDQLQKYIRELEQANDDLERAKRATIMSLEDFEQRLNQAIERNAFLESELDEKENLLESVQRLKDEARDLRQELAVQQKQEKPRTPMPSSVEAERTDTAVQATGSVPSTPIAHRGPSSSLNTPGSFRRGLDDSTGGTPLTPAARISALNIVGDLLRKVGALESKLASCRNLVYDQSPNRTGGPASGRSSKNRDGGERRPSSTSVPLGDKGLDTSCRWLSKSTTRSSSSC
UniProt Q9NXH9: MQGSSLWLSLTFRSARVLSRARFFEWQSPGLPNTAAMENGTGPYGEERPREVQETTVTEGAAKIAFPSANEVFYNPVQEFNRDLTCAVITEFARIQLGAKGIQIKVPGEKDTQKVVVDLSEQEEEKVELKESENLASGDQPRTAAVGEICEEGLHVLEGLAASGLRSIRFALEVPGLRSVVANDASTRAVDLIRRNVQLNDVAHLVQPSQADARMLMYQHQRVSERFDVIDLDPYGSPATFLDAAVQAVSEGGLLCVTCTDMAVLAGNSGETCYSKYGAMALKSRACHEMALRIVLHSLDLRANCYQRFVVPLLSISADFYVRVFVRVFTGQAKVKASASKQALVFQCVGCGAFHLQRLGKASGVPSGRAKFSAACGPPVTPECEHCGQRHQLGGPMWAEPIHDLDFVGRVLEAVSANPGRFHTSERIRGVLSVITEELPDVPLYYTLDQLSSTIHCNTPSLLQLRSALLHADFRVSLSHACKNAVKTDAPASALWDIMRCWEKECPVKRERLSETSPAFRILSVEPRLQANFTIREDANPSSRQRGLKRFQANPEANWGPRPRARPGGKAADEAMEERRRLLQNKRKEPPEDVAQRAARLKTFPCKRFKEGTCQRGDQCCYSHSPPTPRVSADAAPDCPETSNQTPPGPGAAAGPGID
UniProt Q9NWT1: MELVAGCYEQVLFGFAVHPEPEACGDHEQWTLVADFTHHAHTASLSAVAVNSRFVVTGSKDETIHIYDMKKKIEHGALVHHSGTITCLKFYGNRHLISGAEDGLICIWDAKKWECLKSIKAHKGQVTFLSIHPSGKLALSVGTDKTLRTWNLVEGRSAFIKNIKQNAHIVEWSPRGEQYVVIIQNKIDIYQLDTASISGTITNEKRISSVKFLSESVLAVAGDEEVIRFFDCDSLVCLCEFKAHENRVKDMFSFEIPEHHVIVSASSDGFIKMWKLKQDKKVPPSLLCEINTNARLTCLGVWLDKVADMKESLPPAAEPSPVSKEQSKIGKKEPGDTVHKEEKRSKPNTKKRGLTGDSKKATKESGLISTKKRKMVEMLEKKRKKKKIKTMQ
UniProt Q9NQ66: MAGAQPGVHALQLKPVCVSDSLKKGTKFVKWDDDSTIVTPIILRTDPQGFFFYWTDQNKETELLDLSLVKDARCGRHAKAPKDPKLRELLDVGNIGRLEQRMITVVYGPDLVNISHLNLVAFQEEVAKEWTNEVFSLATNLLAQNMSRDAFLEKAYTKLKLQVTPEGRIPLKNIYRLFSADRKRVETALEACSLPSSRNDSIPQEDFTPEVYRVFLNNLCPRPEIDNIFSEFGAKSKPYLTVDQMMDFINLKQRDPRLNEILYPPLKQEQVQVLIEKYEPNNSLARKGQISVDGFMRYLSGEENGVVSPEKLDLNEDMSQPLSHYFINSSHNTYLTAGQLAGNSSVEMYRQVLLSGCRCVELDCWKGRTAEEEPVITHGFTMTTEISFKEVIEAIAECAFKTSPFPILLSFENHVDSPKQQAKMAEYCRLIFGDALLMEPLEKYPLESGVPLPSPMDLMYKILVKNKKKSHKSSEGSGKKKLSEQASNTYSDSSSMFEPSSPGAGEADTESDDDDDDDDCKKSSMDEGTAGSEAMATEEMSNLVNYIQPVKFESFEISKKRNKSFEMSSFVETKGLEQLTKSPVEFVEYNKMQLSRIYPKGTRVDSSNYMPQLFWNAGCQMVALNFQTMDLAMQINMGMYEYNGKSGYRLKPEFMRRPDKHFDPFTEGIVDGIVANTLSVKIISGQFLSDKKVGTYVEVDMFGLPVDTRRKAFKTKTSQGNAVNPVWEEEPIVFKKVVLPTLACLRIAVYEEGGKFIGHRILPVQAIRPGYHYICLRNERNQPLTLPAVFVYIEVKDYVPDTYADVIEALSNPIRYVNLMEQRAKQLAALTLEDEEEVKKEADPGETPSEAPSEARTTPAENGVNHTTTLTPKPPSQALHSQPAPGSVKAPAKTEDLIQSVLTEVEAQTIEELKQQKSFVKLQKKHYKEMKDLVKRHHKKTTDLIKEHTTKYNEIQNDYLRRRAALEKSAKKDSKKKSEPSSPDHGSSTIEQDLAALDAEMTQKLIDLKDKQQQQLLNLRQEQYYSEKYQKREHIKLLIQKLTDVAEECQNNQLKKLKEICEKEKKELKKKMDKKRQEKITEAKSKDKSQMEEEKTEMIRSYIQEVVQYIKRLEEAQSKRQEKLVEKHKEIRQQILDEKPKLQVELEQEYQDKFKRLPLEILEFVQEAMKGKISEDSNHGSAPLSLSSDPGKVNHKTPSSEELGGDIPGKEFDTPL
UniProt Q9NRG9: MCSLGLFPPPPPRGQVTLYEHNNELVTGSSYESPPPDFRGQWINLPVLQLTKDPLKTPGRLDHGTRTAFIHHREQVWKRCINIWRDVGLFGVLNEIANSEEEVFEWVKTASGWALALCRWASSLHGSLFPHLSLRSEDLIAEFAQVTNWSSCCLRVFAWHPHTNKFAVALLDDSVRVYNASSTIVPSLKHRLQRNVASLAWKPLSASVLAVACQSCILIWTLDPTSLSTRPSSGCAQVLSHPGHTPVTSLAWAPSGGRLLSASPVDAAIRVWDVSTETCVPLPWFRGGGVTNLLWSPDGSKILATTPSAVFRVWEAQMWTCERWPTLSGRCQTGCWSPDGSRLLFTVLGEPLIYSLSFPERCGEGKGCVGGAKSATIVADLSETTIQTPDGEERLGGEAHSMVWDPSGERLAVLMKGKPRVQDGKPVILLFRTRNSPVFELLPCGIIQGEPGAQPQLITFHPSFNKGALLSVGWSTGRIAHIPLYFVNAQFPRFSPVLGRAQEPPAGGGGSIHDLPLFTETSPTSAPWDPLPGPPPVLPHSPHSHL
UniProt Q9NV35: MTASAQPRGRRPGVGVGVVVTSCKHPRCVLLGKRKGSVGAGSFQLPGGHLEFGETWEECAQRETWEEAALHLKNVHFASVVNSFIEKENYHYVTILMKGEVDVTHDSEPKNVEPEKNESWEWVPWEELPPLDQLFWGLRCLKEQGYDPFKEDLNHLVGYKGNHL
UniProt Q9NRD1: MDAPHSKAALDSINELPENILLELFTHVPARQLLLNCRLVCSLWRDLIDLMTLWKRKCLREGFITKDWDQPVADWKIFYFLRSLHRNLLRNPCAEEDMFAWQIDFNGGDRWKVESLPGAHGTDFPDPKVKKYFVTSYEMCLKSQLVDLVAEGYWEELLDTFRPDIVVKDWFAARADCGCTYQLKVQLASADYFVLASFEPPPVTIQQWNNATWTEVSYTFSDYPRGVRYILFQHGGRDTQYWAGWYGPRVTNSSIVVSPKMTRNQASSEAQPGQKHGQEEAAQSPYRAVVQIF
UniProt Q9NSA3: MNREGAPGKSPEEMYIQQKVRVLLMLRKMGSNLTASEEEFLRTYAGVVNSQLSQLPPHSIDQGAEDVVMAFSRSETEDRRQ
UniProt Q9NVM4: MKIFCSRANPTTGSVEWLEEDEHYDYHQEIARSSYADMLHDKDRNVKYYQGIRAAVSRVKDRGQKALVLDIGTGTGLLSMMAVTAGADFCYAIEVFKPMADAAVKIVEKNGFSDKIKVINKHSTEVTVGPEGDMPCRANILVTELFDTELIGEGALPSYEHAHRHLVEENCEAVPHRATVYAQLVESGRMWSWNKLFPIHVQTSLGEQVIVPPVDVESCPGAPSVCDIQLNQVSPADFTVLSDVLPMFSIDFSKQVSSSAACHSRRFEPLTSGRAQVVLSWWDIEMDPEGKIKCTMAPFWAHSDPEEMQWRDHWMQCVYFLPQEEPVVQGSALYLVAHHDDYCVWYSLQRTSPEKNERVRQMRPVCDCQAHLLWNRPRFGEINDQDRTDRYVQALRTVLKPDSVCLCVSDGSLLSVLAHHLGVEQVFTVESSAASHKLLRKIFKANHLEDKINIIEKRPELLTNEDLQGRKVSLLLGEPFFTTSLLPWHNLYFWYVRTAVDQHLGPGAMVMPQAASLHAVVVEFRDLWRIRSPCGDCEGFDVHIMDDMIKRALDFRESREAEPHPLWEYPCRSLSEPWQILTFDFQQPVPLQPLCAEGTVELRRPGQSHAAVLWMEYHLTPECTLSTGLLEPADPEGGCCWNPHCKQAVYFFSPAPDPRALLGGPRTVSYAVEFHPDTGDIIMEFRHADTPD
UniProt Q9P086: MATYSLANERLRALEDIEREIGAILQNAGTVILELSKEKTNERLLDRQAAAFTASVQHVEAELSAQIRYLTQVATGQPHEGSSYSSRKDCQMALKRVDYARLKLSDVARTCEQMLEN
UniProt Q9NQ86: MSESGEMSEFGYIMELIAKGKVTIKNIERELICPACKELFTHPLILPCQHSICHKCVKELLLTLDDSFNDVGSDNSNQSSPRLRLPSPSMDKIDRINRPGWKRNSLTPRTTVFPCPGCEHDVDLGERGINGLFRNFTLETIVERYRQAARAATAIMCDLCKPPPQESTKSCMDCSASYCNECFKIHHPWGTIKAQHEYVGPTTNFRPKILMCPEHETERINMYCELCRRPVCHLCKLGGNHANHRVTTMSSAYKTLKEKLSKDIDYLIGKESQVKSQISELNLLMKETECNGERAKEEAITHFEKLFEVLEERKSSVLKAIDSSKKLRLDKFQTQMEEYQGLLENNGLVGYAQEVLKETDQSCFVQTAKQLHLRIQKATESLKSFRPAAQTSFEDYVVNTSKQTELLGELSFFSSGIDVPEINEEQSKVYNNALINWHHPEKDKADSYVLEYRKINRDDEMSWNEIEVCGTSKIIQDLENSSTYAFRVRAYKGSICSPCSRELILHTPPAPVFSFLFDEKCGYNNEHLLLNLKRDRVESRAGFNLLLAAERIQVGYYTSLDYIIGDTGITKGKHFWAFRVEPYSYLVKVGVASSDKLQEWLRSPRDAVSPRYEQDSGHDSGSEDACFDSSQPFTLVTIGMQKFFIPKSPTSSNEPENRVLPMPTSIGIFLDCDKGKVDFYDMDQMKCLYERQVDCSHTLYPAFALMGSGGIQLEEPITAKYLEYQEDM

± gives the standard deviation of the averaged measurements. This is a selection; strong and weak results do not stand in their true shares. Small differences around the control level are noise.

Compound in the assay: Nc1ncnc2c1ncn2[C@@H]1O[C@H](COP(=O)(O)OP(=O)(O)OP(=O)(O)O)[C@@H](O)[C@H]1O [adenosine triphosphate]
Put plainly: NP40-soluble protein abundance relative to vehicle (solubility fold change) (ratio); higher = more soluble protein in presence of ATP. In outline: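 Eight concentrations, 0.1 to 10 mM, were tested on Jurkat crude lysate for 10 min at room temperature and then 3 min at 37 °C, in three independent experiments. The lysate was solubilised with 0.8% NP40 and benzonase, ultracentrifuged, and the supernatant TMT-labelled for LC-MS/MS. Each value is the fold change against the detergent-processed vehicle in its own replicate, from vsn-normalised intensities.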

For UniProt Q9NWS8 and related entries, the NP40-soluble protein abundance was 1.06 ± 0.067 (concentration: 0.1mM) and 0.98 ± 0.11 (concentration: 0.5mM).

For the target TMEM9 (UniProt Q9P0T7), the NP40-soluble protein abundance came to 0.942 ± 0.093 (concentration: 0.1mM) and 0.887 ± 0.11 (concentration: 0.5mM).

Take ABHD10 (UniProt Q9NUJ1): the NP40-soluble protein abundance worked out at 1.01 ± 0.077 (concentration: 0.1mM) and 1.05 ± 0.052 (concentration: 0.5mM).

In the case of UniProt Q9NVQ4 and related entries, the NP40-soluble protein abundance is 1.09 ± 0.13 (concentration: 0.1mM) and 1.06 ± 0.033 (concentration: 0.5mM).

FBXO28 (UniProt Q9NVF7): the NP40-soluble protein abundance runs as follows: (concentration: 0.1mM) 1.04 ± 0.025; (concentration: 0.5mM) 1.11 ± 0.047.

As for UniProt Q9NPQ8 and related entries, the NP40-soluble protein abundance by setting is: (concentration: 0.1mM) 0.995 ± 0.021; (concentration: 0.5mM) 1.02 ± 0.016.

Regarding TMEM106B (UniProt Q9NUM4), the NP40-soluble protein abundance runs as follows: (concentration: 0.1mM) 0.997 ± 0.081; (concentration: 0.5mM) 0.96 ± 0.097.

Turning to KCMF1 (UniProt Q9P0J7), the NP40-soluble protein abundance reads like this: (concentration: 0.1mM) 0.957 ± 0.074; (concentration: 0.5mM) 1 ± 0.081.

Regarding SMARCAL1 (UniProt Q9NZC9), the NP40-soluble protein abundance was 1.03 ± 0.066 (concentration: 0.1mM) and 1.04 ± 0.037 (concentration: 0.5mM).

In the case of SERINC1 (UniProt Q9NRX5), the NP40-soluble protein abundance runs as follows: (concentration: 0.1mM) 1.01 ± 0.021; (concentration: 0.5mM) 0.934 ± 0.12.

With UniProt Q9NUS5, the NP40-soluble protein abundance reads like this: (concentration: 0.1mM) 1.019 ± 0.0058; (concentration: 0.5mM) 0.978 ± 0.099.

As for FARSB (UniProt Q9NSD9), the NP40-soluble protein abundance runs as follows: (concentration: 0.1mM) 1.03 ± 0.065; (concentration: 0.5mM) 1.02 ± 0.062.

For the target MRPL39 (UniProt Q9NYK5), the NP40-soluble protein abundance runs as follows: (concentration: 0.1mM) 0.968 ± 0.097; (concentration: 0.5mM) 1.04 ± 0.14.

Regarding SNRK (UniProt Q9NRH2), the NP40-soluble protein abundance is, setting by setting: (concentration: 0.1mM) 1.07 ± 0.059; (concentration: 0.5mM) 1.07 ± 0.047.

With UniProt Q9NXR1 and related entries, the NP40-soluble protein abundance (concentration: 0.1mM) came out at 0.938 ± 0.064 and the NP40-soluble protein abundance (concentration: 0.5mM) came out at 0.939 ± 0.085.

For the target UniProt Q9P0J1 and related entries, the NP40-soluble protein abundance came out at 1.009 ± 0.0073 (concentration: 0.1mM) and 0.953 ± 0.092 (concentration: 0.5mM).

For the target UniProt Q9NZ01, the NP40-soluble protein abundance was 0.987 ± 0.09 (concentration: 0.1mM) and 1.01 ± 0.029 (concentration: 0.5mM).

For the target UniProt Q9NXH9 and related entries, the NP40-soluble protein abundance by setting is: (concentration: 0.1mM) 1.03 ± 0.027; (concentration: 0.5mM) 1.02 ± 0.012.

As to UniProt Q9NX14 and related entries, the NP40-soluble protein abundance (concentration: 0.1mM) came to 0.896 ± 0.11 and the NP40-soluble protein abundance (concentration: 0.5mM) was found to be 0.874 ± 0.12.

With UniProt Q9P0J0 and related entries, the NP40-soluble protein abundance (concentration: 0.1mM) worked out at 1 ± 0.047 and the NP40-soluble protein abundance (concentration: 0.5mM) was 0.936 ± 0.044.

As to AASDHPPT (UniProt Q9NRN7), the NP40-soluble protein abundance by setting is: (concentration: 0.1mM) 1.05 ± 0.097; (concentration: 0.5mM) 1.02 ± 0.088.

Regarding MYO5C (UniProt Q9NQX4), the NP40-soluble protein abundance by setting is: (concentration: 0.1mM) 0.973 ± 0.026; (concentration: 0.5mM) 0.977 ± 0.032.

Consider HMG20B (UniProt Q9P0W2), for which the NP40-soluble protein abundance was 0.936 ± 0.054 (concentration: 0.1mM) and 0.939 ± 0.11 (concentration: 0.5mM).

Regarding PAK1IP1 (UniProt Q9NWT1), the NP40-soluble protein abundance by setting is: (concentration: 0.1mM) 1.17 ± 0.18; (concentration: 0.5mM) 1.05 ± 0.06.

For RNF181 (UniProt Q9P0P0), the NP40-soluble protein abundance came to 0.948 ± 0.066 (concentration: 0.1mM) and 0.941 ± 0.059 (concentration: 0.5mM).

As for UBE2T (UniProt Q9NPD8), the NP40-soluble protein abundance by setting is: (concentration: 0.1mM) 1.03 ± 0.099; (concentration: 0.5mM) 0.929 ± 0.1.

For the target UniProt Q9NQ66 and related entries, the NP40-soluble protein abundance is 1.01 ± 0.058 (concentration: 0.1mM) and 0.988 ± 0.04 (concentration: 0.5mM).

As for UniProt Q9NXK8 and related entries, the NP40-soluble protein abundance reads like this: (concentration: 0.1mM) 1.05 ± 0.11; (concentration: 0.5mM) 1.08 ± 0.065.

Take OSGEP (UniProt Q9NPF4): the NP40-soluble protein abundance runs as follows: (concentration: 0.1mM) 1.02 ± 0.059; (concentration: 0.5mM) 0.989 ± 0.037.

DPP3 (UniProt Q9NY33): the NP40-soluble protein abundance was 1.04 ± 0.064 (concentration: 0.1mM) and 1.03 ± 0.064 (concentration: 0.5mM).

As for UniProt Q9NSB8 and related entries, the NP40-soluble protein abundance is 1.11 ± 0.24 (concentration: 0.1mM) and 1.04 ± 0.11 (concentration: 0.5mM).

Regarding UniProt Q9NRG9 and related entries, the NP40-soluble protein abundance worked out at 1.08 ± 0.084 (concentration: 0.1mM) and 1.02 ± 0.079 (concentration: 0.5mM).

Turning to NUDT15 (UniProt Q9NV35), the NP40-soluble protein abundance came to 0.9834 ± 0.0095 (concentration: 0.1mM) and 1.04 ± 0.071 (concentration: 0.5mM).

Consider UniProt Q9NUP1, for which the NP40-soluble protein abundance (concentration: 0.1mM) was 0.892 ± 0.14 and the NP40-soluble protein abundance (concentration: 0.5mM) worked out at 0.825 ± 0.13.

INTS10 (UniProt Q9NVR2): the NP40-soluble protein abundance by setting is: (concentration: 0.1mM) 1.02 ± 0.018; (concentration: 0.5mM) 1.016 ± 0.006.

DYNLRB1 (UniProt Q9NP97): the NP40-soluble protein abundance is, setting by setting: (concentration: 0.1mM) 0.944 ± 0.048; (concentration: 0.5mM) 0.912 ± 0.12.

As for PFDN4 (UniProt Q9NQP4), the NP40-soluble protein abundance (concentration: 0.1mM) turned out to be 0.896 ± 0.13 and the NP40-soluble protein abundance (concentration: 0.5mM) came out at 0.837 ± 0.14.

With UniProt Q9NWF9 and related entries, the NP40-soluble protein abundance by setting is: (concentration: 0.1mM) 0.94 ± 0.09; (concentration: 0.5mM) 0.973 ± 0.084.

Regarding UniProt Q9NRD1 and related entries, the NP40-soluble protein abundance by setting is: (concentration: 0.1mM) 0.921 ± 0.17; (concentration: 0.5mM) 0.948 ± 0.14.

In the case of CTNNBIP1 (UniProt Q9NSA3), the NP40-soluble protein abundance worked out at 0.976 ± 0.037 (concentration: 0.1mM) and 0.958 ± 0.032 (concentration: 0.5mM).

As to TERF2IP (UniProt Q9NYB0), the NP40-soluble protein abundance came out at 0.99 ± 0.024 (concentration: 0.1mM) and 1.01 ± 0.02 (concentration: 0.5mM).

As for CCDC88C (UniProt Q9P219), the NP40-soluble protein abundance (concentration: 0.1mM) stood at 1.01 ± 0.022 and the NP40-soluble protein abundance (concentration: 0.5mM) was found to be 1 ± 0.046.

UniProt Q9NVM4 and related entries: the NP40-soluble protein abundance (concentration: 0.1mM) worked out at 1.11 ± 0.063 and the NP40-soluble protein abundance (concentration: 0.5mM) is 1.04 ± 0.084.

Take PLSCR3 (UniProt Q9NRY6): the NP40-soluble protein abundance reads like this: (concentration: 0.1mM) 1.113 ± 0.01; (concentration: 0.5mM) 0.994 ± 0.039.

COMMD8 (UniProt Q9NX08): the NP40-soluble protein abundance (concentration: 0.1mM) is 0.998 ± 0.081 and the NP40-soluble protein abundance (concentration: 0.5mM) came to 0.906 ± 0.15.

Regarding UniProt Q9NQC7 and related entries, the NP40-soluble protein abundance by setting is: (concentration: 0.1mM) 1 ± 0.07; (concentration: 0.5mM) 1 ± 0.021.

In the case of MED11 (UniProt Q9P086), the NP40-soluble protein abundance is, setting by setting: (concentration: 0.1mM) 1.06 ± 0.31; (concentration: 0.5mM) 0.928 ± 0.11.

Regarding UniProt Q9NQ86 and related entries, the NP40-soluble protein abundance is, setting by setting: (concentration: 0.1mM) 1.02 ± 0.031; (concentration: 0.5mM) 0.979 ± 0.045.

TOMM22 (UniProt Q9NS69): the NP40-soluble protein abundance was found to be 0.926 ± 0.12 (concentration: 0.1mM) and 0.869 ± 0.15 (concentration: 0.5mM).

Consider UniProt Q9NRR4 and related entries, for which the NP40-soluble protein abundance reads like this: (concentration: 0.1mM) 1.12 ± 0.1; (concentration: 0.5mM) 1.18 ± 0.12.

On to PHPT1 (UniProt Q9NRX4), for which the NP40-soluble protein abundance (concentration: 0.1mM) stood at 1.01 ± 0.018 and the NP40-soluble protein abundance (concentration: 0.5mM) came to 0.995 ± 0.041.

BSDC1 (UniProt Q9NW68): the NP40-soluble protein abundance runs as follows: (concentration: 0.1mM) 0.922 ± 0.036; (concentration: 0.5mM) 0.898 ± 0.032.

As to UniProt Q9NUT2 and related entries, the NP40-soluble protein abundance (concentration: 0.1mM) was determined as 1.05 ± 0.063 and the NP40-soluble protein abundance (concentration: 0.5mM) amounted to 1 ± 0.024.

As to FASTKD2 (UniProt Q9NYY8), the NP40-soluble protein abundance runs as follows: (concentration: 0.1mM) 1.05 ± 0.075; (concentration: 0.5mM) 1.02 ± 0.051.

Turning to UniProt Q9NQH7 and related entries, the NP40-soluble protein abundance amounted to 1.04 ± 0.054 (concentration: 0.1mM) and 1.05 ± 0.024 (concentration: 0.5mM).

For the target UniProt Q9NWV4, the NP40-soluble protein abundance (concentration: 0.1mM) was determined as 0.996 ± 0.039 and the NP40-soluble protein abundance (concentration: 0.5mM) was found to be 0.99 ± 0.036.

Consider MRPL40 (UniProt Q9NQ50), for which the NP40-soluble protein abundance (concentration: 0.1mM) was determined as 0.956 ± 0.17 and the NP40-soluble protein abundance (concentration: 0.5mM) is 0.963 ± 0.13.

In the case of UniProt Q9NVU7 and related entries, the NP40-soluble protein abundance reads like this: (concentration: 0.1mM) 1.01 ± 0.02; (concentration: 0.5mM) 1.03 ± 0.032.

As for EXOSC4 (UniProt Q9NPD3), the NP40-soluble protein abundance stood at 1.08 ± 0.067 (concentration: 0.1mM) and 1.09 ± 0.054 (concentration: 0.5mM).

In the case of SMC4 (UniProt Q9NTJ3), the NP40-soluble protein abundance reads like this: (concentration: 0.1mM) 1.01 ± 0.036; (concentration: 0.5mM) 1.04 ± 0.06.
